Assay results from patent US20240409647A1, “BISPECIFIC BINDING PROTEINS AGAINST ALARMINS AND USES THEREOF” (SINOMAB BIOSCIENCE LIMITED, priority 2022, published 2024).
At least one structure is not confirmed: it was looked up by name or label, or the drawing left a doubt.

Experiments:
[1] = test system: OVA-induced murine experimental asthma; assay: Ovalbumin induced asthma on mice; assay type: in vivo, BALB/c mice
Method: Female BALB/c mice were induced with ovalbumin to elicit asthma like symptoms on mice. Briefly, mice were each sensitized with […] of ovalbumin (OVA) emulsified in 1 mg of aluminum hydroxide in a total volume of […] via intraperitoneal (IP) injections on Days 0 and 12. Mice were divided into 6 groups with 8 mice per group. Sensitized mice were exposed to aerosolized 5% OVA in sterile water, 20 minutes/day for six consecutive days (Days 19, 20, 21, 22, 23 and 24). Naïve mice inhaled the atomized water, 20 minutes/day, for six consecutive days. Mice were then i.v. injected with different concentrations of SM17, PBS (control), or dexamethasone (Dex) 4 hours before aerosol challenge, once per day (Day 19 to 24).
On day 25 (24 hours after the last OVA challenge), mice were anesthetized with Telazol® (20-40 mg/kg i.p.) and connected to a computer-controlled ventilator via the tracheal cannula. […] After a steady baseline was established, the resistance of the lung (RL) was recorded to evaluate the reaction of mice to a methacholine chloride gradient (0.025 and 0.05 mg/kg body weight); the methacholine chloride was injected into the vena jugulars externa at 5-min intervals via a fine needle. […] BALF from mice sacrificed on Day 25 was retrieved, and inflammatory cell number and the concentrations of inflammatory cytokine from BALF were determined. […]

[2] = test system: ILC2 population in human PBMC; assay: ILC2 cell population in human PBMC culture (flow cytometry); assay type: cell-based; details: IL-2 and three alarmins, 5 days
Excerpt: (§1) While alarmins are known to work in concert to enhance ILC2 and Th2 cell functions such as increase in cell population, steroids such as Dexamethasone (Dex) can negate these effects, resulting in the mitigation of type 2 immune responses [Jia, Yi et al. American Journal Of Respiratory Cell And Molecular Biology, vol. 55, 5 (2016): 675-683]. ILC2 and Th2 cell population can be determined by flow cytometry (BD FACSVerse) following standard procedures known to those skilled in the art.

[3] = test system: Th2 cell population in human PBMC; assay: Th2 cell population in human PBMC culture (flow cytometry); assay type: cell-based; details: IL-2 and three alarmins, 5 days
Excerpt: as §1

## C[C@@H]1C[C@H]2[C@@H]3CCC4=CC(=O)C=C[C@]4(C)[C@@]3(F)[C@@H](O)C[C@]2(C)[C@@]1(O)C(=O)CO [Dex, Dexamethasone, reference compound]
[1]; 1 mg/kg Dex once per day, Day 19 to 24, methacholine challenge day 25
  airway hyperresponsiveness (in words): prevented airway hyperresponsiveness
[1]; Dex
  number of pulmonary infiltrated eosinophils (in words): significantly reduce the number of pulmonary infiltrated eosinophils
[2]
  ILC2 population (lin−IL-7Ra+CRTH2+) (in words): but not ILC2 population
[3]
  Th2 cell population (CD4+GATA3+) (in words): significantly reduce the Th2 cell population
